This experiment deals with SCC2095 cells. Kind of experiment: Cell viability (MTT) assay, SCC2095. The format is cell-based. The note with it: Homo sapiens, 48 h, human oral cancer cells, read-out: IC50 of cytotoxicity SCC2095. From the text:
Human breast cancer MDA-MB-231 cells and gastric cancer SCM-1 cells were purchased from the American Type Culture Collection (Manasas, VA, USA). SCC2095 human oral cancer cells were kindly provided by Professor Susan R. Mallery (The Ohio State University). Normal human lung fibroblasts (NHLFs; CC-2512) were purchased from the Lonza (Walkersville, MD, USA). SCM-1 cells were maintained in RPMI-1640 medium (Invitrogen, Carlsbad, CA, USA); MDA-MB-231 and SCC2095 cells were maintained in DMEM/F12 (Invitrogen); and NHLFs were maintained in FGM™-2 medium (Lonza) with 2% serum, supplemented with 10% heat-inactivated foetal bovine serum (FBS; Gibco, Grand Island, NY, USA). All cells were cultured at 37 °C in a humidified incubator containing 5% CO2 and 95% relative humidity.
To assess cell viability, cells were seeded in three replicates into 96-well plates at a density of 5×10^3/well for 24 h following incubation with compounds at the indicated concentrations. Then, cell viability was assessed with 3–(4,5-dimethylthiazol-2-yl)-2,5-diphenyltetrazolium bromide (MTT) solution (0.5 mg/mL) for 4h as described previously. After removing the medium, 200 µL of DMSO was added, and then the absorbance was measured at 570 nm using a plate reader (BMG LABTECH, Germany).

Consider one compound from publication PMC11423540, “Synthesis and biological evaluation of ortho-phenyl phenylhydroxamic acids containing phenothiazine with improved selectivity for class IIa histone deacetylases” (Journal of Enzyme Inhibition and Medicinal Chemistry, 2024).

pIC50: −log10 of the molar value.

With `O=C(CCCCCCC(=O)Nc1ccccc1)NO` [Vorinostat, reference compound], the pIC50 was 5.62.

The pIC50 is the negative decadic logarithm of the IC50, by convention in mol/L.
